Data taken from ChEMBL document CHEMBL3988442, “University of Dundee, Small-Polar-MMV Screening Library” (2021).

Amino acid sequences for entries named in this document (tags omitted). Residues count along the entry.
UniProt P9WPC5, whole entry: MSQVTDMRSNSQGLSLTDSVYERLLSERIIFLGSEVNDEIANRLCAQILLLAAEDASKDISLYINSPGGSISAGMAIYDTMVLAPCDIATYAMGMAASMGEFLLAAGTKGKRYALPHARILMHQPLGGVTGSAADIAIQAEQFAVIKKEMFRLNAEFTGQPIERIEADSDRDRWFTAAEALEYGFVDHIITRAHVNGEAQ
UniProt P9WPC3, whole entry partner: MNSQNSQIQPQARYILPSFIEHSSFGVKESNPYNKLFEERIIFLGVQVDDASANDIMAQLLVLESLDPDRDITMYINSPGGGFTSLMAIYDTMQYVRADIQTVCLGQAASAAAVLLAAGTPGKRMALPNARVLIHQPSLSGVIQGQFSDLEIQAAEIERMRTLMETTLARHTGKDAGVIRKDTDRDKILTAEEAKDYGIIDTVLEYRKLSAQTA
UniProt P9WNZ1, whole entry: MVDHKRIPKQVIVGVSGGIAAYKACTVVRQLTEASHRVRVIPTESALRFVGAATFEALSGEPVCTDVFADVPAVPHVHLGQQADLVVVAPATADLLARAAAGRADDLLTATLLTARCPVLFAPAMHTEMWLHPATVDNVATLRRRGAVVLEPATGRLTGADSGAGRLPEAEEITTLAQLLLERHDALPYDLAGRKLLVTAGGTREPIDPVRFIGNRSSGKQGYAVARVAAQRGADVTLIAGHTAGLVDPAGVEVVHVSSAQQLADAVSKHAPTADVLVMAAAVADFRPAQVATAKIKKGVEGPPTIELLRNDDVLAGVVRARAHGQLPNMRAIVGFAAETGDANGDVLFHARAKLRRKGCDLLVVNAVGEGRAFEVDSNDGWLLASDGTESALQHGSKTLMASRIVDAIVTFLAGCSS
UniProt Q8IDJ8, 1-583: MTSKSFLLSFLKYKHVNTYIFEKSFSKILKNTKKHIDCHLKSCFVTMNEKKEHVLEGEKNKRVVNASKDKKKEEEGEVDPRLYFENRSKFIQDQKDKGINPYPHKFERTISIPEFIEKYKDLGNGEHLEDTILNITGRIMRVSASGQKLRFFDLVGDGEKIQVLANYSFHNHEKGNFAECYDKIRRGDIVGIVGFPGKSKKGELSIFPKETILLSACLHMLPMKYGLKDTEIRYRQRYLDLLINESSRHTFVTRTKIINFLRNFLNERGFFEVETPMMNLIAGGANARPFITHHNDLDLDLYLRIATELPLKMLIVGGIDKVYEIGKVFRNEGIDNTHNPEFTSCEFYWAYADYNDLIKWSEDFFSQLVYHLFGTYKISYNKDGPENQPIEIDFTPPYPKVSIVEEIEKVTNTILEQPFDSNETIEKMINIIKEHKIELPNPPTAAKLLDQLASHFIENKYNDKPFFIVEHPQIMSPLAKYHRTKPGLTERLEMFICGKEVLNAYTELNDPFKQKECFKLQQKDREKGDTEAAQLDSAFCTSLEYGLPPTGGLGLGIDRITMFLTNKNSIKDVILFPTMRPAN

A: 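Protease assay of ClpP1P2, read by the AMC dye that it sets free. Target: ClpP1P2, Mycobacterium tuberculosis (UniProt P9WPC5 and UniProt P9WPC3). Tested at 50 µM. Higher reads as stronger inhibition, judged from the few compounds that gave an IC50. Most other retested compounds had strongly negative values. Size under these conditions: about 69,000 compounds, about 10 of them at 50% or above in at least one test.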
B: 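Enzyme assay of CoaBC with a phosphate dye (Biomol Green) read at 650 nm. Target: Coenzyme A biosynthesis protein CoaBC, Mycobacterium tuberculosis (UniProt P9WNZ1). Concentration: 30 µM. Direction is inferred from only a few compounds that gave an IC50; most scored high, so higher reads as stronger inhibition. Most strong results did not repeat in a second test. About 67,000 compounds were tested under these conditions; 0.06% (about 40) showed 50% or more at least once.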
C: 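Lysine-tRNA ligase, Plasmodium falciparum 3D7 (UniProt Q8IDJ8). Enzyme assay of the cytosolic lysyl-tRNA synthetase in 384-well plates, read by luminescence. Compounds at 30 µM. Higher reads as stronger inhibition, judged from the few compounds that gave an IC50. Of about 69,000 compounds tested this way, about 49 (0.071%) reached 50% or more in at least one test.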
D: 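Cell assay of Leishmania donovani living inside macrophages; the read-out is not stated. Concentration: 30 µM. The record gives no direction; compounds that gave an IC50 in retests scored well above the rest, so higher reads as stronger inhibition. About 69,000 compounds were tested under these conditions; 1.5% (about 1,000) showed 50% or more at least once.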

Each number is a percent effect as filed. How 0% and 100% were set is not recorded. Most values in the screen are low, and negative values occur. This is an unselected part of the compounds tested. Two or more numbers in one place are separate tests of the same structure; such repeats can differ widely.

{"structure": "O=C(O)C(F)(F)F.O=C(c1ccoc1)N1CCCC2(CCC(=O)N2Cc2cccnc2)C1", "stereo": "stereo unspecified", "D": "18.73 and 10.93"}
{"structure": "CCc1cc(N(C)Cc2nonc2C)nc(N2CCOCC2)n1", "A": 11.84, "B": 7.805, "C": 3.705, "D": -21.45}
{"structure": "Cn1nc(C2CCCC2)c(-c2ccc3c(c2)OCO3)c1N", "A": -9.263, "B": 0.4963, "C": 5.977, "D": 9.001}
{"structure": "COCCC(=O)N1CCn2cc(CN3CCN(C)CC3)nc2C1", "A": -1.192, "B": -3.871, "C": 2.543}
{"structure": "O=C(c1coc(COc2ccccc2F)n1)N1CCCO1", "A": -5.12, "B": 2.265, "C": 0.3772, "D": -12.26}
{"structure": "NC(=O)c1csc(C(=O)N2CCCCC2Cn2cccn2)c1", "stereo": "stereo unspecified", "A": 3.173, "B": 4.047, "C": 2.715, "D": 18.22}
{"structure": "O=C(NC1CCCC1)C1Cc2nc(-c3ccsc3)sc2N1CC1CC1", "stereo": "stereo unspecified", "A": -10.25, "B": -15.17, "C": 3.255, "D": -10.58}
{"structure": "CCOc1ccccc1C(C(=O)O)N(C)Cc1nc(C)c[nH]1", "stereo": "stereo unspecified", "A": -21.79, "B": 5.825, "C": 6.9, "D": 34.69}
{"structure": "CC(CC(=O)O)CC(=O)Nc1sc2c(c1C(N)=O)CCc1ccccc1-2", "stereo": "stereo unspecified", "A": -6.534, "B": -1.211, "C": -0.7125, "D": -11.59}
{"structure": "CC(C)c1nnc(CN2CC(n3cccn3)Cc3ccccc32)o1", "stereo": "stereo unspecified", "A": 2.995, "B": 8.946, "C": 6.67, "D": -1.055}
{"structure": "CN1CCC(CNC(=O)c2cccc(CN3CCCCCC3)c2)C1", "stereo": "stereo unspecified", "A": -8.702, "B": 5.448, "C": 3.608, "D": -20.09}
{"structure": "Cc1cc(CNCC2Cn3nnc(C)c3CO2)oc1C.O=C(O)C(F)(F)F", "stereo": "stereo unspecified", "D": "7.743 and 8.463"}
{"structure": "CSCC1CCCN(c2ncnc3oc(C)nc23)C1", "stereo": "stereo unspecified", "A": -0.8539, "B": 5.124, "C": 6.765, "D": 37.29}
{"structure": "CC(C)N(C)Cc1cnc2n1CCN(CCc1ccccc1)C2.O=C(O)C(F)(F)F.O=C(O)C(F)(F)F", "D": 22.63}
{"structure": "COc1ccc(CCCC(=O)N2C[C@H](C3CC3)[C@@H](N(C)C)C2)cc1", "A": -5.567, "B": 1.082, "C": 0.2204, "D": -1.85}
{"structure": "O=C(NCC1CC1)C1CCC2(CCNCC2)C1", "stereo": "stereo unspecified", "A": -9.214, "B": 0, "C": 3.304, "D": -16.1}
{"structure": "CCC(CO)N(Cc1ccco1)C(=O)c1ccccc1NC", "stereo": "stereo unspecified", "A": -2.538, "B": 9.671, "C": 4.295, "D": 33.8}
{"structure": "CNC(=O)NC(=O)COc1c(C(C)=O)ccc(Cl)c1Cl", "A": 2.497, "B": 4.519, "C": 7.314, "D": 11.6}
{"structure": "Cc1cccc(NC(=O)c2[nH]nc(C(C)C)c2Br)n1", "A": -9.458, "B": -26.75, "C": -2.703, "D": -11.65}
{"structure": "CO[C@@H]1CC[C@H]2[C@H]1OCCN2CC1CCOCC1", "A": 4.532, "B": 9.317, "C": 5.696}
{"structure": "CCN1CC(C(=O)N2CCc3cc(C(N)=O)n(C)c3C2)CCC1=O", "stereo": "stereo unspecified", "A": -0.6581, "B": 11.2, "C": 0.9812, "D": 8.884}
{"structure": "CN1CCCC(c2ccnc(C(=O)NCC3CC3)c2)C1", "stereo": "stereo unspecified", "A": 3.585, "B": -2.92, "C": 0.7757, "D": "12.93 and 22.32"}

Some entries from above, unchanged:

{"structure": "CNC(=O)NC(=O)COc1c(C(C)=O)ccc(Cl)c1Cl", "A": 2.497, "B": 4.519, "C": 7.314, "D": 11.6}
{"structure": "CO[C@@H]1CC[C@H]2[C@H]1OCCN2CC1CCOCC1", "A": 4.532, "B": 9.317, "C": 5.696}